Assay results published in article PMC10180197, “Novel Pyrimidine Derivatives as Antioxidant and Anticancer Agents: Design, Synthesis and Molecular Modeling Studies” (Molecules, 2023).

Assay: Interaction with glutathione
Settings: for ελmax: 24 h
[1] = compound + 2[GSH] (two-fold glutathione), pH 7.4, 37 °C
[2] = compound alone, phosphate buffer pH 7.4, 37 °C

SMILES	ελmax [1]	ελmax [2]	Interaction with glutathione (in words, after incubation)
O=c1[nH]c(=S)[nH]c2nc(-c3ccc(Cl)cc3)cc(-c3ccc(Cl)cc3)c12 [Compound 2f, 5,7-bis(4-chlorophenyl)-2-thioxo-2,3-dihydropyrido [2,3-d]pyrimidin-4(1H)-one]	220 M⁻¹ cm⁻¹	1130 M⁻¹ cm⁻¹	–
O=C(/C=C/c1ccc(Cl)cc1Cl)c1ccc(Cl)cc1 [Compound 1h, (E)-1-(4-chlorophenyl)-3-(2,4-dichlorophenyl)prop-2-en-1-one]	–	–	apart from
O=c1[nH]c(=S)[nH]c2nc(-c3ccccc3)cc(-c3ccccc3)c12 [Compound 2a, 5,7-diphenyl-2-thioxo-2,3-dihydropyrido [2,3-d]pyrimidin-4(1H)-one]	4200 M⁻¹ cm⁻¹	5385 M⁻¹ cm⁻¹	–
